{"sequences": {"note": "The chains behind the UniProt entries cited, without tags or fusion partners.", "UniProt Q15003": "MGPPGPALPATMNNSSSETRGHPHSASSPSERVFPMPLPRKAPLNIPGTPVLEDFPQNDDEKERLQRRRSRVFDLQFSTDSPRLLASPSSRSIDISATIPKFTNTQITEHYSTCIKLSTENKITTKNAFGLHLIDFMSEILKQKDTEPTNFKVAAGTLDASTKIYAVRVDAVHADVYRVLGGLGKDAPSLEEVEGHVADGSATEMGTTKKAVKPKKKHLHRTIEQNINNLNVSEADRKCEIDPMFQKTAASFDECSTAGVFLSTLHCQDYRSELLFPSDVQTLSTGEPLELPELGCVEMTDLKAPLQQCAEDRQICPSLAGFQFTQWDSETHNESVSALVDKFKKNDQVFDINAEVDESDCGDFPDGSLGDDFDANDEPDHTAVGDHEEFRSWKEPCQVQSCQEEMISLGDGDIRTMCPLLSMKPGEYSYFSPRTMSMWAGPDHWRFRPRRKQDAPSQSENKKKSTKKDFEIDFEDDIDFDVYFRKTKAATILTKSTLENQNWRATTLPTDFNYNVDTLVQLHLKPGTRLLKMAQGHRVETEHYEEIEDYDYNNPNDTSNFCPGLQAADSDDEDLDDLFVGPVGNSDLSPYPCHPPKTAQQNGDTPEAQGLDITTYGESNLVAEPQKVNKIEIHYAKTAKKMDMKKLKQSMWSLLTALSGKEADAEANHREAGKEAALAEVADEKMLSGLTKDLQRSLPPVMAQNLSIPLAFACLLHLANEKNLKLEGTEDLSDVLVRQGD"}, "source": "paper PMC5560531", "key": {"[1]": {"target": "T1, Kinesin family member 4 (KIF4), endogenous in mitotic HeLa cells (human (endogenous in HeLa)) (UniProt O95239)", "T1 sequence": "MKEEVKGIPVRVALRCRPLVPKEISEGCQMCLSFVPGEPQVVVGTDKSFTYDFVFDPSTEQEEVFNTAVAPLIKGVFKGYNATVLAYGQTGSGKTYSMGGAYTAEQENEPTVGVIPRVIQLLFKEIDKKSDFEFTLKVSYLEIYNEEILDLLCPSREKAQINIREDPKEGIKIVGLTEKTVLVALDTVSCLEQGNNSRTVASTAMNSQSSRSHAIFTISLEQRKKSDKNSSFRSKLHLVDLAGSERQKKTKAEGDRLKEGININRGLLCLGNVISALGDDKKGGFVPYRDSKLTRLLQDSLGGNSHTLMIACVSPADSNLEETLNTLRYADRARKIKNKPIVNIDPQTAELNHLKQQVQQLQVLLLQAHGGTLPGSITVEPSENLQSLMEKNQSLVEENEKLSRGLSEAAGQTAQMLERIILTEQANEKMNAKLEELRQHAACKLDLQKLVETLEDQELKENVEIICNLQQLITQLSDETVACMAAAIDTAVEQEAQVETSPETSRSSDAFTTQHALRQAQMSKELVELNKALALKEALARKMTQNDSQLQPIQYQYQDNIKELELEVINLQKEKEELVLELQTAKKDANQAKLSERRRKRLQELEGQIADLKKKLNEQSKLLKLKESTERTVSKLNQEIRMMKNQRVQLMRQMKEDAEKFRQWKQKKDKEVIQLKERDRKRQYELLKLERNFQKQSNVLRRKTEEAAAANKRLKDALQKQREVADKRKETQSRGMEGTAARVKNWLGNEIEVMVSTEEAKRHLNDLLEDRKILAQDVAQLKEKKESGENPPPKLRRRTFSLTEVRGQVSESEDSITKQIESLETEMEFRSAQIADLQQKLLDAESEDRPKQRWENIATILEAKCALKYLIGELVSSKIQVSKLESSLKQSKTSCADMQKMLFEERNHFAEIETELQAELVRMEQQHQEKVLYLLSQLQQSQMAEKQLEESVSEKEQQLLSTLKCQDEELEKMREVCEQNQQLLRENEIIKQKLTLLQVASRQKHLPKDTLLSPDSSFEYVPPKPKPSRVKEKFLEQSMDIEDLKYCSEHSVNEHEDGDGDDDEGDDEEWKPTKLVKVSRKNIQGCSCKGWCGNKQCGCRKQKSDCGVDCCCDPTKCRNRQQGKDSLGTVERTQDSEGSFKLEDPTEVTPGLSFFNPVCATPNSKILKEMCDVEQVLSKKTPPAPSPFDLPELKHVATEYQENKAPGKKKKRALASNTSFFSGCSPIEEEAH", "assay": "condition: only in the chromatin-unbound (cytoplasmic) fraction; co-IP; KIF4 immunoprecipitated from the chromatin-unbound (cytoplasmic) protein fraction of nocodazole-arrested mitotic HeLa cells; western blot"}, "[2]": {"target": "T1, Kinesin family member 4 (KIF4), endogenous in mitotic HeLa cells (human (endogenous in HeLa))", "assay": "co-IP; KIF4 immunoprecipitated (antibody, protein A sepharose, overnight 4°C, washes with CSK3 buffer, 250 mM NaCl) from the chromatin-bound protein fraction (MNase-released) of nocodazole-arrested mitotic HeLa cells; also from cells treated without or with 4 μM ZM447439; western blot"}}, "note": "No constants are given. Whether binding was seen depends on the method and setting. In cells and extracts the contact can be indirect. Some entries that bind do so weakly or less than the wild type."}
{"substance": "hCAP-H, non-SMC subunit of condensin I, endogenous in mitotic HeLa cells (from UniProt Q15003 1-741)", "values": [{"measurement": "binding", "setting": "[1]", "value": "no binding"}, {"measurement": "binding", "setting": "[2]", "value": "binds"}]}
